Experimental data reported in PubChem BioAssay AID2685 (National Center for Advancing Translational Sciences (NCATS), 2010).
Some of the results follow. These are further read-outs of the screen, such as a control signal, another cell line or another target. No call is given for them. Compounds called inactive in the main read-out are mostly missing here. Potencies come from curve fits of mixed quality, noted in brackets.

Assay: qHTS Assay for Lipid Storage Modulators in Drosophila S3 Cells;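 on cell number change: cells counted by Cell Tracker Red CMTPX staining in the red channel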
Conditions: BODIPY lipid droplet fluorescence, 18-24 h; for cell number change: measured here: cell count max response, cells fed with added oleic acid
Outline: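 Drosophila S3 cells got compounds at several concentrations plus oleic acid (400 uM solution). Laser-scanning cytometry with 488 nm excitation read lipid droplets at 500-530 nm and cells at 575-640 nm. Percent activity was relative to 20 uM Triacsin C.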

[1] = measured here: cell number channel AC50, cells fed with added oleic acid
[2] = measured here: lipid fluorescence (Fed channel) AC50, cells fed with added oleic acid

Row | SMILES | cell number change [%] | AC50 [1] | AC50 [2]
1 | COc1ccc(OC)c(/C=N/Nc2cc(C)nc(N3CCOCC3)n2)c1 | 6.83 | – | –
2 | COc1ccc(-n2c(C)c(C(C)=O)c3cc(OC(C)=O)ccc32)cc1 | 12.5 | – | –
3 | O=S(=O)(c1ccc2ccccc2c1)N(CC(O)COCc1ccco1)c1ccccc1 (configuration not stated) | 0.435 | 0.146 µM [falling, full curve, poor fit] | 0.164 µM [falling, full curve, poor fit]
4 | Cc1cccc(N2CCN(CC(=O)N(C3CCCC3)C3CCS(=O)(=O)C3)CC2)c1C (configuration not stated) | -33.2 | – | 0.259 µM [falling, full curve, poor fit]
5 | COc1ccc(CC(=O)Nc2cccc(-c3csc(C)n3)c2)cc1 | 23.5 | – | –
6 | CC(=C1C(=O)c2ccccc2C1=O)N1CCN(C/C=C/c2ccccc2)CC1 | – | – | 16.4 µM [falling, single point]
7 | Cc1ccc(CNC(=O)CN2CCN(c3ccc(F)cc3)CC2)cc1 | -3.97 | – | 29.1 µM [rising, single point]
8 | O=C(Nc1nnc(-c2ccc(F)cc2)o1)c1cc(Cl)sc1Cl | -50 | 1.64 µM [falling, partial curve] | –
9 | CN(C)c1ccc(-c2noc(C3CCN(C(=O)Nc4ccc(Cl)cc4)CC3)n2)cc1 | 0.486 | – | 0.461 µM [rising, full curve]
10 | CC(OC(=O)c1cccc(-n2cnnn2)c1)C(=O)Nc1cccc(Cl)c1 (configuration not stated) | 113 | 6.51 µM [falling, single point] | 6.51 µM [falling, single point]
11 | COc1ccc(NS(=O)(=O)c2cccc3cccnc23)cc1Cl | 9.01 | – | –
12 | COCC(=O)NCc1nc2ccccc2n1Cc1ccccc1F | 1.21 | – | 9.2 µM [rising, partial curve, poor fit]
13 | COc1ccc(-c2cn3nc(SCC(=O)NC4CCCCC4)ccc3n2)cc1 | 16.6 | 0.0326 µM [rising, full curve, poor fit] | –
14 | COc1ccc(NS(=O)(=O)c2c(F)cccc2F)cc1S(=O)(=O)N1CCOCC1 | 3.85 | – | 0.58 µM [falling, single point]
15 | COc1cccc(NC(=O)N(CCN(C)C)C(C)c2cccnc2)c1 (configuration not stated) | 15.4 | – | –
16 | CCn1c(=O)cc(OCC(=O)Nc2ccc(OC)c(OC)c2)c2ccccc21 | -4.33 | – | 6.51 µM [falling, single point]
17 | Fc1ccc(Cn2c(SCc3ccc(F)c(C(F)(F)F)c3)nnc2C(F)(F)F)cc1 | 22.4 | – | 25.9 µM [rising, single point]
18 | Cc1cc(N/N=C/c2ccc(N(C)C)cc2)nc(NCc2ccccc2)n1 | 11.8 | – | –
19 | CC(=O)c1c(C(C)=O)c(C)n(-c2nc(-c3ccc(C)c(C)c3)c(C)s2)c1C | – | 1.46 µM [rising, partial curve] | 0.58 µM [rising, single point]
20 | CCOC(=O)C(NC(=O)Nc1ccc(F)cc1F)(Oc1ccccc1)C(F)(F)F (configuration not stated) | 7.8 | – | –

11 of the compounds above, tab-delimited.
Row	SMILES	cell number change [%]	AC50 [1]	AC50 [2]
5	COc1ccc(CC(=O)Nc2cccc(-c3csc(C)n3)c2)cc1	23.5	–	–
6	CC(=C1C(=O)c2ccccc2C1=O)N1CCN(C/C=C/c2ccccc2)CC1	–	–	16.4 µM [falling, single point]
7	Cc1ccc(CNC(=O)CN2CCN(c3ccc(F)cc3)CC2)cc1	-3.97	–	29.1 µM [rising, single point]
8	O=C(Nc1nnc(-c2ccc(F)cc2)o1)c1cc(Cl)sc1Cl	-50	1.64 µM [falling, partial curve]	–
9	CN(C)c1ccc(-c2noc(C3CCN(C(=O)Nc4ccc(Cl)cc4)CC3)n2)cc1	0.486	–	0.461 µM [rising, full curve]
10	CC(OC(=O)c1cccc(-n2cnnn2)c1)C(=O)Nc1cccc(Cl)c1 (configuration not stated)	113	6.51 µM [falling, single point]	6.51 µM [falling, single point]
11	COc1ccc(NS(=O)(=O)c2cccc3cccnc23)cc1Cl	9.01	–	–
12	COCC(=O)NCc1nc2ccccc2n1Cc1ccccc1F	1.21	–	9.2 µM [rising, partial curve, poor fit]
13	COc1ccc(-c2cn3nc(SCC(=O)NC4CCCCC4)ccc3n2)cc1	16.6	0.0326 µM [rising, full curve, poor fit]	–
14	COc1ccc(NS(=O)(=O)c2c(F)cccc2F)cc1S(=O)(=O)N1CCOCC1	3.85	–	0.58 µM [falling, single point]
15	COc1cccc(NC(=O)N(CCN(C)C)C(C)c2cccnc2)c1 (configuration not stated)	15.4	–	–

Next part.

Row | SMILES | cell number change [%] | AC50 [1] | AC50 [2]
21 | CN(C(=O)CSc1nnc(-c2ccncc2)n1Cc1ccccc1)C1CCS(=O)(=O)C1 (configuration not stated) | -5.01 | – | –
22 | O=C(NC1CCCC1)c1cc(-c2ccc(Cl)c(Cl)c2)on1 | 16.7 | – | –
23 | COc1ccc(-c2c(C)n([O-])c(C)c(C)[n+]2=O)cc1OC | -18.3 | – | 18.4 µM [rising, single point]
24 | C=CCn1c(-c2ccc3ncccc3c2)n[nH]c1=S | 23.3 | 2.06 µM [rising, full curve, poor fit] | 3.26 µM [rising, partial curve]
25 | O=C(Nc1c(C(=O)N2CCOCC2)oc2ccccc12)c1cccc([N+](=O)[O-])c1 | -11.3 | 0.291 µM [rising, partial curve, poor fit] | –
26 | Cc1[nH]c(=O)[nH]c(=O)c1S(=O)(=O)Nc1ccc(F)c([N+](=O)[O-])c1 | 15.6 | – | 29.1 µM [rising, single point]
27 | COc1ccc(C(=O)c2cn[nH]c2-c2cc(Cl)ccc2O)cc1 | -2.8 | – | 18.4 µM [rising, single point]
28 | COC(=O)CSc1n[nH]c(-c2cccnc2)n1 | -28 | 2.31 µM [falling, full curve, poor fit] | –
29 | COc1ccc(CNC(=O)CN(C(=O)c2snc(C(N)=O)c2N)c2ccccc2F)cc1 | 17.3 | – | 6.51 µM [rising, single point]
30 | CCOc1ccccc1NC(=O)COC(=O)Cc1ccsc1 | -10.3 | – | 29.1 µM [rising, single point]
31 | Cc1sc2ncn(CC(=O)NCCCC(=O)NCc3ccc(F)cc3)c(=O)c2c1C | 5 | – | –
32 | O=C(CCCCCNC(=O)c1ccccc1)C[N+](=O)[O-] | – | – | 0.00461 µM [falling, full curve, poor fit]
33 | O=c1[nH]c(=S)[nH]nc1Cc1ccccc1 | 54.1 | 20.6 µM [rising, partial curve] | 29.1 µM [rising, single point]
34 | CCOC(=O)c1ccc(NC(=O)c2cccc(S(=O)(=O)N3c4ccccc4CC3C)c2)s1 (configuration not stated) | -65.2 | 20.6 µM [falling, partial curve] | 4.61 µM [falling, full curve]
35 | Cc1ccsc1C(=O)OCC(=O)c1ccc(OC(F)F)cc1 | -31.6 | 4.61 µM [falling, full curve, poor fit] | 4.11 µM [falling, full curve, poor fit]
36 | CCCN(CCC)S(=O)(=O)c1ccc(N2CCCC2=O)c([N+](=O)[O-])c1 | 13.1 | – | –
37 | CCOc1cc(C(=S)N2CCOCC2)cc(Br)c1OS(=O)(=O)c1ccccc1 | -0.493 | – | 23.1 µM [falling, single point]
38 | CCc1ccccc1N(CC)C(=O)c1cn(C)c(=O)c2cc(OC)c(OC)cc12 | 82.3 | 11.6 µM [rising, partial curve] | 4.11 µM [rising, single point]
39 | CCC(Oc1ccccc1)C(=O)OCC(=O)N(CC)c1c(N)n(Cc2ccccc2)c(=O)[nH]c1=O (configuration not stated) | -5.56 | – | 3.26 µM [rising, single point]
